Results are given in words; binding and its absence hold for the method and conditions named. Some binding calls cover weakened binding; strength is not graded here.
Molecular target: PAF53 (human) (UniProt Q9GZS1)
Test: cryo-EM structure; hPol I elongation complex in the post-translocation state (EC^post) on a DNA-RNA scaffold, 2.8 A; peripheral subunits (RPA43, PAF53, PAF49) from a glutaraldehyde-crosslinked EC^post sample, 3.89 A; EC^pre of almost identical overall fold; both purified

Row | binding | Substance
1 | binds | RPA12 (from UniProt Q9P1U0 1-126)
2 | binds | PAF49 (from UniProt O15446 1-510)

Source: article PMC8528822
